# Assay results published in PubChem BioAssay AID1117319 (Southern Research Institute, 2015).
# Protein sequences, listed by entry. Tags and fused reporters are not part of them. Lines headed by an entry give the natural chain unless they say otherwise; changes in a name come on top.
# UniProt P69720: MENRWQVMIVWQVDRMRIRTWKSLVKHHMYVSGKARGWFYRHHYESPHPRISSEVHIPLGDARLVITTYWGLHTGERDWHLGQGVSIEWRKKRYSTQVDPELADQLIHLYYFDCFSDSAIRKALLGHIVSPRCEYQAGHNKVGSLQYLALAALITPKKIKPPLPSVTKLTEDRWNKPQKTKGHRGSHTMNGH
# UniProt P69721: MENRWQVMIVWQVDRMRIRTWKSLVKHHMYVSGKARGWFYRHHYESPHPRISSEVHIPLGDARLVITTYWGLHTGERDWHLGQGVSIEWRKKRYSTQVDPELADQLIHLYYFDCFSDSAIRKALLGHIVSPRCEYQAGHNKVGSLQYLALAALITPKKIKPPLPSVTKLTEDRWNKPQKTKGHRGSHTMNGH
# UniProt P69722: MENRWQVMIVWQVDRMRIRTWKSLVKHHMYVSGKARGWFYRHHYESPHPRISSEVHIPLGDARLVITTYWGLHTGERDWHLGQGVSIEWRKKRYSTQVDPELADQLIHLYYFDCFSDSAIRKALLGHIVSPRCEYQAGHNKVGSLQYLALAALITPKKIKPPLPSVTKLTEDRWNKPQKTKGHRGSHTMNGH
# UniProt P69723: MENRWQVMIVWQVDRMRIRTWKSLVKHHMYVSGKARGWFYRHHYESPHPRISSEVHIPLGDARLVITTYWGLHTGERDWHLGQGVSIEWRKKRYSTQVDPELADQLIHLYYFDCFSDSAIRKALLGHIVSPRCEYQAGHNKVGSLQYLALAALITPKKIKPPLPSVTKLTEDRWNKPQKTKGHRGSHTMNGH
# UniProt Q9HC16: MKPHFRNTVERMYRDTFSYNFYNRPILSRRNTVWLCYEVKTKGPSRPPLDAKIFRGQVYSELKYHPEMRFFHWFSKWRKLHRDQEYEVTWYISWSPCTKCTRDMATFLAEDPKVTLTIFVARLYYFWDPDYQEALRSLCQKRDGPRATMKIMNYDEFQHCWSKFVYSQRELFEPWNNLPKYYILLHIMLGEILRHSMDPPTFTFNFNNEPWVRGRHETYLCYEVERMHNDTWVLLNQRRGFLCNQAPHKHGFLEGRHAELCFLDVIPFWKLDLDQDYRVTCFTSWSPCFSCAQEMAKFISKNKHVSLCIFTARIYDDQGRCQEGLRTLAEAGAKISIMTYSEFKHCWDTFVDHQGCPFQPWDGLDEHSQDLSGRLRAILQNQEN
# Values joined by “and” are separate entries in the source; they are usually repeats but may differ in a detail not shown here. Equal values may be shown once. Screen size: about 260,000 compounds; about 1,500 (0.58%) were called active. The inconclusive results got no clear call from the source; some entries with a clear call stand among them for comparison.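 The calls were made as follows: active = inhibition above a set limit at one or more doses, reproduced on every date tested; inconclusive = results disagree between test dates, or hit never tested in dose response; inactive = the rest.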
# Target: Virion infectivity factor (Human immunodeficiency virus type 1 group M subtype B (isolate BH10)) + Virion infectivity factor (Human immunodeficiency virus type 1 group M subtype B (isolate BRU/LAI)) + Virion infectivity factor (Human immunodeficiency virus type 1 group M subtype B (isolate PCV12)) + Virion infectivity factor (Human immunodeficiency virus type 1 group M subtype B (isolate HXB2)) + DNA dC->dU-editing enzyme APOBEC-3G (Homo sapiens) (UniProt P69720+P69721+P69722+P69723+Q9HC16)
# Experiment: inhibitors of Vif binding to APOBEC3G peptide, primary screen, biochemical, TR-FRET, GST-Vif 1-94, biotin-A3G peptide, dose response retest (AID 1117319);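 also: Vif residues 1-94 fused to GST binding biotinylated APOBEC3G peptide 110-148; 0% = full assay without inhibitor and 100% = GST in place of GST-Vif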
# Details: active compounds read high
row,Compound,inhibition
1,Cn1cnnc1-c1cccc(NS(=O)(=O)c2ccc(N3CCCC3=O)cc2)c1,inconclusive: 37.2%
2,O=C(CSc1ccc(-c2ccccn2)nn1)Nc1nccs1,inactive: -5.9%
3,CCOc1cc(N2CCOCC2)c(OCC)cc1NC1=NCCCCC1,inconclusive: 34.6%
4,C=C(C)C1Cc2c(C)nn(-c3ccccc3)c2C1 (stereo unspecified),inconclusive: 34.9%
5,CCCN1CCN(S(=O)(=O)c2ccc3c(c2)OCCO3)CC1,inconclusive: 62.7%
6,O=C(CCN1C(=O)S/C(=C\c2cccs2)C1=O)NC1=NCCS1,inactive: 25.6%
7,Cc1nn(C)c(Oc2cccc(C(F)(F)F)c2)c1C#N,inactive: 1.09%
8,CCOc1cccc(C2C(C#N)=C(N)Oc3cc(C)n(Cc4ccccn4)c(=O)c32)c1OCC (stereo unspecified),inactive: 14.3%
9,CCCCCn1c(SCC#N)nc2cc(C(=O)NCC3CCCO3)ccc2c1=O (stereo unspecified),inconclusive: 61.9%
10,CN(CC(=O)Nc1c(Cl)cccc1Cl)C(=O)Cc1ccsc1,inactive: -2.32%
11,Cc1cc(NC(=O)c2cccs2)ncc1NC(=O)c1cccc(F)c1,inconclusive: 47.7%
12,COc1ccc2nc3ccccc3nc2c1NC(=O)c1ccc(Br)cc1,inactive: -5.53%
13,O=C(NN1C(=O)/C(=C/c2cccs2)SC1=S)c1cccnc1,inconclusive: 38.7%
14,Cc1cc(NS(=O)(=O)c2ccc(NC(=O)CSc3nnc(-c4ccco4)n3N)cc2)nc(C)n1,inconclusive: 36.8%
15,CC1=C(C(N)=O)C(c2ccco2)C(C(N)=O)=C(C)N1,inconclusive: 48.3%
16,COc1ccc(Oc2c(C)oc3c(CN(C)C)c(O)ccc3c2=O)cc1,inconclusive: 43.4%
17,O=C(C1=C(O)C(=O)N(c2ncccn2)C1c1cccs1)c1ccco1 (stereo unspecified),inconclusive: 51.4%
18,CCOc1cc(CNc2ccc3[nH]c(=O)[nH]c3c2)ccc1OCC(=O)NC(C)(C)C,inconclusive: 55.7%
19,OCC1(Cc2ccccc2)CCN(Cc2cnn(-c3ccccc3F)c2)CC1,inconclusive: 34%
20,CC(=O)c1ccccc1OCC(O)CN1CCN(CCN2C(=O)c3cccc4cccc(c34)C2=O)CC1 (stereo unspecified),inconclusive: 40.9%
21,CC1=NOC(=O)/C1=C/c1ccc(O)cc1,inconclusive: 41.8%
22,Cc1c(N2C(=O)C3C4C=CC(C4)C3C2=O)c(=O)n(-c2ccccc2)n1C (stereo unspecified),inconclusive: 50.4%
23,COc1ccc(C2=NC(CO)(CO)CO2)cc1,inactive: -8.98%

# By substructure: the compounds so far with a furan ring, fused or not.
row,Compound,inhibition
14,Cc1cc(NS(=O)(=O)c2ccc(NC(=O)CSc3nnc(-c4ccco4)n3N)cc2)nc(C)n1,inconclusive: 36.8%
15,CC1=C(C(N)=O)C(c2ccco2)C(C(N)=O)=C(C)N1,inconclusive: 48.3%
17,O=C(C1=C(O)C(=O)N(c2ncccn2)C1c1cccs1)c1ccco1 (stereo unspecified),inconclusive: 51.4%

# Single values from the entries so far:
# inhibition with `C=C(C)C1Cc2c(C)nn(-c3ccccc3)c2C1` (stereo unspecified) reads inconclusive: 34.9%
# inhibition with `CCOc1cccc(C2C(C#N)=C(N)Oc3cc(C)n(Cc4ccccn4)c(=O)c32)c1OCC` (stereo unspecified) reads inactive: 14.3%

# Carrying on:

row,Compound,inhibition
1,CC1CCCN(CC(O)CN)C1 (stereo unspecified),inconclusive: 37.7%
2,O=C(N/N=C/c1ccncc1)c1ccc(OCc2ccccc2)cc1,inconclusive: 47%
3,Cc1cccc(Nc2nc(-c3cccs3)cs2)n1,inactive: 8.51%
4,O=C(N/N=C/c1ccc(F)cc1)c1cc(-c2ccc3c(c2)OCO3)n[nH]1,inconclusive: 42%
5,Oc1c(Br)cc(Cl)cc1C=Nc1ccc(N2CCOCC2)cc1,inactive: 29.3%
6,CC(C)(Oc1ccc(CCNC(=O)c2ccc(Cl)cc2)cc1)C(=O)O,inconclusive: 53.5%
7,Brc1ccc(C2=NC(Cc3ccccc3)CO2)cc1 (stereo unspecified),inconclusive: 35.9%
8,CCOC(=O)CSc1nc(-c2ccccc2)nc2c1oc1ccccc12,inconclusive: 45.6%
9,CC(C)CC(COCc1cccc(Cl)c1)N1CCN(C(=O)c2cccc(C(F)(F)F)c2)CCC1=O (stereo unspecified),inconclusive: 63%
10,O=C(O)C1Cc2ccccc2CN1S(=O)(=O)c1ccccc1 (stereo unspecified),inconclusive: 34.2%
11,CC(Cl)C(=O)NNc1cccc(Cl)n1 (stereo unspecified),inconclusive: 42.8%
12,Nc1ccccc1Nc1nc2ccccc2[nH]1,inconclusive: 33.9%
13,Cc1cc(Nc2ccccc2)nc(-c2ccccc2O)n1,inconclusive: 36.4%
14,NC(=O)Cc1ccc(C(=O)c2ccc(F)cc2)s1,inactive: -4.28%
15,CCn1c(SCC#N)nc2c(c1=O)C1(CCCC1)Cc1ccccc1-2,inconclusive: 56.1%
16,CC(=O)Nc1nc(SCc2ccc(Cl)cc2Cl)n[nH]1,inconclusive: 49.1%
17,O=C(NCCF)[C@H]1C[C@@H]1[C@H](NP(=O)(c1ccccc1)c1ccccc1)c1ccccc1,inconclusive: 54.2%
18,O=C(Nc1ccccc1)OC1CCS(=O)(=O)C1 (stereo unspecified),inconclusive: 36%
19,COc1ccc(CCn2c(C)cc(C(=O)CSc3nnnn3C)c2C)cc1,inactive: 26.9%
20,CC(C)c1nnc(NC(=O)c2ccc(S(=O)(=O)N3CCOCC3)cc2)s1,inconclusive: 38.7%
21,COc1cc2[nH]c(=O)n(CCCCCC(=O)N3CCN(c4ccccn4)CC3)c(=O)c2cc1OC,inactive: -2.43% and inactive: 26.2%
22,CC(=O)Nc1ccc(CN2CCN(CC=C(C)C)C(CCO)C2)cc1 (stereo unspecified),inconclusive: 33.9%
23,CCC(C(=O)OCC(=O)N1CCN(S(=O)(=O)c2ccc(C)cc2C)CC1)c1ccccc1 (stereo unspecified),inconclusive: 56.8%

row,Compound,inhibition
1,CC1(C(=O)O)CCC(C(=O)N2CCCCC2)C1(C)C (stereo unspecified),inconclusive: 59.9%
2,CC1(C)CC(=O)C=C(c2n[nH]nc2C2CC2)C1,inactive: 4.55%
3,CC(CN1CCN(C)CC1)OC(=O)c1ccc(Cl)cc1Cl (stereo unspecified),inconclusive: 57.1%
4,COc1cc(/C=N/NC(=O)c2ccc(=O)[nH]n2)ccc1O,inconclusive: 43.4%
5,Oc1ccc(C=Nc2ccc3ncccc3c2)c(O)c1,inconclusive: 35.7%
6,O=C(NCc1ccco1)/C(=C\c1cccs1)NC(=O)c1ccsc1,inconclusive: 37.5%
7,COc1ccc(NC(=O)CC2CCCCC2)cc1OC,inconclusive: 46.9%
8,Cc1ccc(S(=O)(=O)Cc2sc3ccccc3[n+]2C)cc1,inconclusive: 40.1%
9,CC1(C)C=Cc2c(c3c(c4c(=O)c(-c5ccc(O)cc5)coc24)OC(C)(C)CC3)O1,inconclusive: 45.6%
10,O=C(NC1=NCCS1)c1sc2cc(F)ccc2c1Cl,inconclusive: 44.9%
11,Cc1ccc(S(=O)(=O)Nc2cc(=O)[nH]c(SCc3ccccc3Cl)n2)cc1,inconclusive: 39%
12,COn1c(=S)[nH]c2ccccc2c1=O,inconclusive: 42.5%
13,CCC(C)OC(=O)C1=C(C)O[C@]23OC(N)=C(C#N)[C@]12C(=O)c1ccccc13 (stereo partly specified),inconclusive: 35.6%
14,O=C(Nc1ccc2snnc2c1)Nc1cccc2ccccc12,inconclusive: 37.5%
15,O=C(N/N=C/c1ccccc1Cl)c1[nH]c2ccc(Br)cc2c1-c1ccccc1,inconclusive: 39.8%
16,COc1ccc(N=C2SC(C(=O)N3CCN(c4ccccc4)CC3)CC(=O)N2C)cc1 (stereo unspecified),inconclusive: 54.9%
17,Cc1cc(NC(=O)CSc2nc3ccsc3c(=O)n2Cc2ccccn2)n[nH]1,inconclusive: 36.9%
18,O=C(CO/N=C/c1ccc(OC(F)F)cc1)NCc1ccc(F)cc1,inconclusive: 47.9%
19,O=C(CSc1nc2nc(-c3cccs3)cc(C(F)(F)F)c2c(=O)[nH]1)Nc1c(F)c(F)c(F)c(F)c1F,inconclusive: 57.7%
20,Cc1cc(C)c(NC(=O)CSc2nc3c(c(=O)n2C)SC(C)C3)c(C)c1 (stereo unspecified),inactive: 3.57%
21,O=C(CNC(=S)N(Cc1ccccc1)Cc1cccnc1)NCCN1CCOCC1,inconclusive: 59%
22,O=C(CCn1ccc2ccccc21)Nc1ccc(N2CCOCC2)cc1,inconclusive: 26.5%
23,O=C(NC1CCCc2ccccc21)c1cn2ccccc2n1 (stereo unspecified),inconclusive: 42.4%

row,Compound,inhibition
1,CC(C)(C)C(=O)OCc1nc(-c2ccc(Cl)cc2)cs1,inactive: -5.87%
2,O=C(CCC1CCCN(C(=O)c2ccsc2)C1)N1CCN(c2ccccn2)CC1 (stereo unspecified),inconclusive: 56.8%
3,Cc1cccc(C(C)(C)C)c1OCCCCN1CCCC1,inconclusive: 58.8%
4,CCN(CC)S(=O)(=O)c1cc(NC(=O)[C@@H](NC(N)=O)C(C)C)ccc1C,inconclusive: 38.4%
5,O=C(CSc1nc2ccccc2n1CCc1ccccc1)NC1CC1,inactive: 16.5%
6,COCc1cc(=O)n2[nH]c(-c3ccsc3-n3c(C)ccc3C)cc2n1,inconclusive: 59%
7,CCOC(=O)C1CCN(C(=O)Cc2ccc(OC)c(OC)c2)CC1,inconclusive: 37.1%
8,Cc1cc(C)c(NC(=O)c2ccc(S(=O)(=O)N3CCOCC3)cc2)c(C)c1,inactive: -5.2%
9,CCC(CC)C(=O)NCCNC(=O)C(CC)CC,inconclusive: 37.8%
10,Cc1ccc2c(CN3CCN(C(=O)c4ccco4)CC3)cc(=O)oc2c1C,inconclusive: 34%
11,Cc1ccc(S(=O)(=O)NNC(=O)c2ccoc2C)cc1,inconclusive: 35.7%
12,CCCCOc1c(Br)cc(/C=N/O)cc1OCC,inconclusive: 33.5%
13,Cc1c(Cl)cccc1Nc1ccccc1C(=O)O,inconclusive: 39.8%
14,CC(=O)NC(=S)Nc1cc(C(=O)O)ccc1Cl,inactive: -3.72%
15,Cn1c(CSc2ncccn2)nnc1SCC(=O)N1CCCCCC1,inconclusive: 52.1%
16,O=C(O)c1cccnc1SC1CC(=O)N(c2cccc(C(F)(F)F)c2)C1=O (stereo unspecified),inconclusive: 53.8%
17,Cc1c(NC(=O)COc2ccc(C(C)C)cc2)c(=O)n(-c2ccccc2)n1C,inactive: -8.62%
18,Cc1ccc(/C=N/NC(=S)Nc2cccc(S(=O)(=O)N(C)C)c2)o1,inconclusive: 37.7%
19,CC(C)c1ccc2[nH]c3nc(SCC(=O)N4CCOCC4)nnc3c2c1,inconclusive: 49.5%
20,CCOC(=O)C1(Cc2cccc(F)c2)CCN(Cc2ccon2)CC1,inactive: -4.55%
21,O=C1CC(CC(=O)N/N=C/c2ccccc2[N+](=O)[O-])=NN1,inconclusive: 57.1%
22,Cc1ccc(NC(=O)c2cn(CCC#N)nc2-c2cccs2)c([N+](=O)[O-])c1,inconclusive: 36.8%
